# Measured values reported in PubChem BioAssay AID2551 (National Center for Advancing Translational Sciences (NCATS), 2010).
# The chains behind the UniProt entries cited, without tags or fusion partners. Where a name states a change or a piece, a line headed by the entry shows the natural chain unless it says otherwise.
# UniProt P51450: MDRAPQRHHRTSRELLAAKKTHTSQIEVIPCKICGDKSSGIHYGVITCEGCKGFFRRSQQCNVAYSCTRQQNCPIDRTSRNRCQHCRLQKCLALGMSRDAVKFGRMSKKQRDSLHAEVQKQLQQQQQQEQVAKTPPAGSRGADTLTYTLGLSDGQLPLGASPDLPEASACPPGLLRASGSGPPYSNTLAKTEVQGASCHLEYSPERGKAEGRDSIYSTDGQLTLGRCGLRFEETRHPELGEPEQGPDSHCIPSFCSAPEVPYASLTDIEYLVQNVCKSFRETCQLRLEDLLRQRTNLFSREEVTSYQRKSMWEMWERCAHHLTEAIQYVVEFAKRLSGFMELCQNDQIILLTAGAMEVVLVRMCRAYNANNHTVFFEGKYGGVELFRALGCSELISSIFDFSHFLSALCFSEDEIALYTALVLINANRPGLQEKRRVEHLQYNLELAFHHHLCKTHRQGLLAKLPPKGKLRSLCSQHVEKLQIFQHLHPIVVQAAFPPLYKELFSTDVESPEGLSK
# Out of some 310,000 compounds screened, about 17,000 (5.5%) were called active. The inconclusive results got no clear call from the source; some entries with a clear call stand among them for comparison. Calls follow the shape of the dose curve; as a rule, active = well fitted inhibition curve with a large enough effect; inconclusive = small, poorly fitted or top-dose-only effect, or effect the other way; inactive = no such curve, though single readings can be large or run the other way. A potency beside an inconclusive call is a rough fit, not a confirmed value.
# Target: Nuclear receptor ROR-gamma (Mus musculus) (UniProt P51450)
# Experiment: qHTS for inhibitors of ROR gamma transcriptional activity; also: nearly all actives have a fitted effect of over 60% in size
# Conditions: Drosophila S2 Gal4-RORgamma UAS-luciferase reporter, 20 h; activity change, negative = inhibition: at 53.6 µM (top of the series)
# Outline: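 Using a luciferase readout, inhibitors were identified by reduced reporter activity in Drosophila cells coexpressing a copper-inducible Gal4–ROR gamma fusion and UAS-driven Photinus luciferase, incubated 20 hr after 700 uM copper sulfate.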
# % is scaled to controls: 0 for no effect and ±100 for the full control effect; potency is read from the fitted curve at half-maximal effect.
SMILES,"activity change, negative = inhibition",Potency
Cc1c(NC(=O)/C=C/c2cn(-c3ccccc3)nc2-c2ccc(F)cc2)c(=O)n(-c2ccccc2)n1C,inactive: 18.8%,–
Cc1cc(C)cc(C(=O)NCC(=O)OCC(=O)N2c3ccccc3NC(=O)C2(C)C)c1,–,"inconclusive: 10 µM [activator, partial curve]"
CC1Cc2ccccc2N1C(=O)CO/N=C/c1ccc(OC(F)F)cc1 (stereo not given),inactive: 16%,–
CC(=O)N1CCN(c2ccc(Oc3ccc([N+](=O)[O-])c(C(F)(F)F)c3)cc2)CC1,–,"inconclusive: 31.6 µM [inhibitor, single point]"
COc1ccc(/C=C/c2noc(-c3ccccc3O)n2)cc1,–,"inconclusive: 10 µM [inhibitor, single point]"
CCCC(=O)N(c1ccc(C(=O)O)cc1)c1nc(-c2ccccc2)c(C)s1,–,"inconclusive: 20 µM [activator, single point]"
CN1C(=O)CS(=O)c2ccc(C(=O)NCCC3=CCCCC3)cc21 (stereo not given),inactive: -16.6%,–
O=C(c1ccc([N+](=O)[O-])s1)N1CCN(c2ccc(C(F)(F)F)cn2)CC1,–,"inconclusive: 11.2 µM [activator, partial curve]"
CC(=O)Nc1ccc(SCC(c2ccccc2)N2CCN(C)CCC2=O)cc1 (stereo not given),inactive: -18.5%,–
CN(Cc1ccon1)C(=O)c1ccc2nc(Cc3cccc(Cl)c3)oc2c1,inactive: 32%,–
O=C(Nc1ncc(Cc2cc(Cl)ccc2Cl)s1)c1ccc([N+](=O)[O-])cc1,–,active: 1 µM
C/C(=N\NC(=O)c1ccc(OC2OCCOC2Oc2ccc(C(=O)N/N=C(\C)c3ccncc3)cc2)cc1)c1ccncc1 (stereo not given),–,"inconclusive: 0.631 µM [inhibitor, partial curve]"
O=C(Cc1ccccc1)NCCc1cccc(Cl)c1,–,"inconclusive: 7.94 µM [activator, partial curve, poor fit]"
COc1cc2ccc(=O)oc2cc1OCC(O)C(C)(C)O (stereo not given),inactive: -1.11%,–
CC(=O)c1ccc(N=Cc2c(O)n(-c3cc(Cl)ccc3N3CCOCC3)c(=O)c3ccccc23)cc1,inactive: -19.4%,–
CCCCN1C(=O)C(=O)N(CC(=O)Nc2ccccc2C(=O)OCC)C1=O,–,"inconclusive: 35.5 µM [inhibitor, single point]"
C/C(=N\NC(=O)C1CCCN(S(=O)(=O)c2ccccc2)C1)c1ccccn1 (stereo not given),–,active: 2.82 µM
CCc1ccc(-c2nc(C(N)=O)c3[nH]c(=O)n(-c4ccccc4OC)c3n2)cc1,–,"inconclusive: 1.12 µM [inhibitor, full curve]"
COc1ccc(-c2nc(C(=O)NCC3CCCO3)cc3c2[nH]c2ccccc23)cc1 (stereo not given),–,"inconclusive: 20 µM [activator, partial curve]"
CCc1ccc(-n2c(=O)c3ccccc3n(CC(=O)C(C)(C)C)c2=O)cc1,inactive: 10.6%,–
Oc1c(Cl)cc(Cl)cc1C=Nc1ccc2c(c1)OCCO2,–,active: 14.1 µM
COc1ccccc1C(=O)N/C(=N/c1nc(C)cc(C)n1)Nc1ccccc1,–,active: 10 µM
CC(C)Cn1c2c(c(O)c(C(=O)Nn3c(Cc4ccccc4)nc4ccccc4c3=O)c1=O)CCCC2,inactive: -20.2%,–
Cc1ccc(-c2nnc(Nc3ccc(CC(N)=O)cc3)c3ccccc23)cc1S(N)(=O)=O,inactive: 7.86%,–

SMILES,"activity change, negative = inhibition",Potency
CN(C)c1ccc(N/C=C/C(=O)c2ccccc2)cc1,–,active: 5.62 µM
COc1ccc(NC(=S)N2CCN(c3ccccc3)CC2)c(OC)c1,inactive: -23%,–
Cc1cccc(NC(=O)/C=C/c2ccc(Cl)cc2)n1,–,active: 1.58 µM
O=C(Nc1cccc(OC(F)(F)F)c1)c1ccc(Br)o1,–,"inconclusive: 35.5 µM [inhibitor, single point]"
CCCc1ccc(OCC(=O)O)cc1,–,"inconclusive: 0.794 µM [activator, full curve, poor fit]"
CCOC(Cn1c(-c2ccc(OC)cc2)nc2ccccc21)OCC,–,"inconclusive: 25.1 µM [inhibitor, single point]"
CCc1ccc(C(O)(CNCc2ccccc2)c2ccccc2)cc1 (stereo not given),inactive: -19.4%,–
O=C(CCS(=O)(=O)Cc1ccccc1)Nc1nc2c(s1)CCCC2,–,"inconclusive: 12.6 µM [activator, single point]"
Cc1cc(C)c(S(=O)(=O)/N=C2/C=C(Sc3ncn[nH]3)C(=O)c3ccccc32)cc1C,–,active: 3.98 µM
CC1=CC(C)(C)Nc2ccc(OC(=O)c3ccco3)cc21,–,active: 2.82 µM
CCn1c(NC(=O)c2nn(C)cc2Br)nc2ccccc21,–,active: 2.51 µM
COc1cccc(COc2ccccc2C2Nc3ccc(Br)cc3C(=O)N2NC(=O)c2ccncc2)c1 (stereo not given),–,"inconclusive: 10 µM [inhibitor, partial curve]"
CCOC(=O)C1(Cc2cccc(OC)c2)CCN(Cc2cccnc2)CC1,–,active: 11.2 µM
Cc1cccc(-c2nnnn2-c2cccc(C)c2)c1,–,"inconclusive: 11.2 µM [inhibitor, partial curve]"
CCCCC(=O)Nc1ccc(C(=O)NNC(=S)NC(=O)c2cccs2)cc1,–,active: 7.94 µM
Cn1cc(/C=C/c2nc3ccccc3c(=O)n2-c2cccc([N+](=O)[O-])c2)c2ccccc21,inactive: 0.991% [at 10 µM],–
O=C(O)c1ccc2c(=O)n3c(nc2c1)/C(=C/c1ccc(Cl)cc1Cl)CC3,inactive: 34.2%,–
Oc1ccc(Br)cc1-c1n[nH]c(=S)n1Cc1ccccc1,–,active: 10 µM
Cc1cccc(NC(=O)c2ccc(N3C(=O)C4C5C=CC(C6CC56)C4C3=O)cc2)c1 (stereo not given),–,"inconclusive: 7.08 µM [activator, full curve]"
CC1CN(S(=O)(=O)c2cccc(-c3cn4ccccc4n3)c2)CC(C)O1 (stereo not given),–,"inconclusive: 5.01 µM [inhibitor, partial curve, poor fit]"
O=C(CSC1=NNC(c2ccccn2)S1)Nc1ccccc1 (stereo not given),–,active: 1 µM
c1ccc(CNc2ccc3c(c2)ncn3C2CCCCC2)nc1,–,"inconclusive: 5.62 µM [activator, single point]"
CCOc1cc(/C=N/NC(=O)c2ccc(O)cc2)ccc1Oc1nc(Cl)ncc1F,–,"inconclusive: 11.2 µM [inhibitor, partial curve]"
CC(C)C[C@H](NC(=O)CNC(=O)[C@H](C)NC(=O)[C@H](CC(C)C)NC(=O)[C@H](CCCNC(=N)N)NC(=O)[C@H](Cc1cnc[nH]1)NC(=O)[C@@H](NC(=O)[C@@H](N)C(C)C)[C@@H](C)O)C(=O)N[C@@H](CC(C)C)C(=O)N[C@@H](CO)C(=O)N[C@@H](CCCNC(=N)N)C(=O)N[C@@H](CO)C(=O)NCC(=O)NCC(=O)N[C@H](C(=O)N[C@H](C(=O)N[C@@H](CCCCN)C(=O)N[C@@H](CC(N)=O)C(=O)N[C@@H](CC(N)=O)C(=O)N[C@@H](Cc1ccccc1)C(=O)N[C@H](C(=O)N1CCC[C@H]1C(=O)N[C@H](C(=O)N[C@@H](CC(N)=O)C(=O)N[C@H](C(=O)NCC(=O)N[C@@H](CO)C(=O)N[C@@H](CCCCN)C(=O)N[C@@H](C)C(=O)N[C@@H](Cc1ccccc1)C(N)=O)C(C)C)[C@@H](C)O)C(C)C)C(C)C)C(C)C,inactive: -8.68%,–

# Copied from the list:
# In Potency, c1ccc(CNc2ccc3c(c2)ncn3C2CCCCC2)nc1 has inconclusive: 5.62 µM [activator, single point]
# In Potency, CCn1c(NC(=O)c2nn(C)cc2Br)nc2ccccc21 has active: 2.51 µM
# In Potency, CC1CN(S(=O)(=O)c2cccc(-c3cn4ccccc4n3)c2)CC(C)O1 (stereo not given) has inconclusive: 5.01 µM [inhibitor, partial curve, poor fit]
# In Potency, O=C(CSC1=NNC(c2ccccn2)S1)Nc1ccccc1 (stereo not given) has active: 1 µM

# More structures

SMILES,"activity change, negative = inhibition",Potency
COc1ccc(OC)c(CNC(=O)CCn2c(=O)c3cccn3c3ccc(F)cc32)c1,inactive: -6.89%,–
O=C(COC(=O)C12CC3CC(CC(O)(C3)C1)C2)NCCc1ccc(Cl)cc1,–,"inconclusive: 35.5 µM [activator, single point]"
COc1ccc(CCNC(=S)Nc2ccc(C)cc2C)cc1,–,active: 3.98 µM
Cc1[nH]c(=O)c(C#N)c(C)c1CCC(=O)NCc1ccc(Cl)cc1,inactive: 8.59%,–
Cc1nnc(SCc2ccc(Cl)cc2Cl)[nH]c1=O,–,"inconclusive: 0.178 µM [activator, single point]"
CC(C)(C)c1csc(NC(=O)C2COc3ccccc3O2)n1 (stereo not given),–,"inconclusive: 10 µM [activator, partial curve]"
O=C(CN(C(=O)c1ccc(Cl)cc1)C1CCCCC1)Nc1ccc(Cl)c([N+](=O)[O-])c1,–,"inconclusive: 11.2 µM [activator, partial curve]"
CC(NC(=O)c1ccc(N2CCCC2=O)cc1)c1ccccc1 (stereo not given),inactive: 21.2%,–
CCCCc1ccccc1NC(=S)NC1CCCC1,–,active: 3.16 µM
O=C(CSc1nc2ccc([N+](=O)[O-])cc2[nH]1)NC1CCCCCC1,–,"inconclusive: 3.55 µM [activator, partial curve, poor fit]"
Cc1cc(NC(=O)/C=C/c2ccc(F)cc2)n(-c2nc3ccccc3[nH]2)n1,–,active: 1.26 µM
Cc1cc(C(=O)N/N=C\C(Br)=C\c2ccccc2)c(C)o1,–,"inconclusive: 4.47 µM [inhibitor, full curve]"
CCCCCCc1cc2cc(S(=O)(=O)c3ccc(Cl)cc3)c(=O)oc2cc1O,–,"inconclusive: 35.5 µM [inhibitor, single point]"
O=C(c1ccco1)N1CCN(c2nc(-c3ccc(F)cc3)cs2)CC1,–,"inconclusive: 7.08 µM [inhibitor, partial curve, poor fit]"
COc1ccc(/C(C)=N/NC(=O)C2CC2)cc1,inactive: 10.8%,–
Cc1cc(O)c(CN(C)C)c2c1C(=O)/C(=C/c1ccco1)O2,inactive: 10.3%,–
OCCNc1nc(Nc2ccc(O)cc2)nc2ccccc12,inactive: 5.59%,–
Cn1c(N=Nc2ccccc2)nc2ccccc21,–,active: 0.708 µM
O=C(NCCc1ccccn1)c1cc(-c2cccc3ccccc23)nc2ccccc12,–,"inconclusive: 35.5 µM [activator, single point]"
COc1cc(C)c2c(=O)cc(-c3ccccc3)oc2c1,inactive: 14%,–
OC(COCC(F)(F)C(F)(F)C(F)(F)C(F)F)Cn1c2ccccc2c2ccccc21 (stereo not given),–,"inconclusive: 12.6 µM [inhibitor, single point]"
O=C(CN1C(=O)/C(=C/c2cccc(Cl)c2)SC1=S)NC1C=CS(=O)(=O)C1 (stereo not given),–,active: 12.6 µM
